# Assay results: the supplement of paper PMC12819154, “High-throughput peptide-centric local stability assay extends protein–ligand identification to membrane proteins, tissues and bacteria” (Nature Structural & Molecular Biology, 2025)
# By UniProt entry, the sequences of proteins in these tests, tags left out. Where a name states a change or a piece, a line headed by the entry shows the natural chain unless it says otherwise.
# UniProt Q3UYV9: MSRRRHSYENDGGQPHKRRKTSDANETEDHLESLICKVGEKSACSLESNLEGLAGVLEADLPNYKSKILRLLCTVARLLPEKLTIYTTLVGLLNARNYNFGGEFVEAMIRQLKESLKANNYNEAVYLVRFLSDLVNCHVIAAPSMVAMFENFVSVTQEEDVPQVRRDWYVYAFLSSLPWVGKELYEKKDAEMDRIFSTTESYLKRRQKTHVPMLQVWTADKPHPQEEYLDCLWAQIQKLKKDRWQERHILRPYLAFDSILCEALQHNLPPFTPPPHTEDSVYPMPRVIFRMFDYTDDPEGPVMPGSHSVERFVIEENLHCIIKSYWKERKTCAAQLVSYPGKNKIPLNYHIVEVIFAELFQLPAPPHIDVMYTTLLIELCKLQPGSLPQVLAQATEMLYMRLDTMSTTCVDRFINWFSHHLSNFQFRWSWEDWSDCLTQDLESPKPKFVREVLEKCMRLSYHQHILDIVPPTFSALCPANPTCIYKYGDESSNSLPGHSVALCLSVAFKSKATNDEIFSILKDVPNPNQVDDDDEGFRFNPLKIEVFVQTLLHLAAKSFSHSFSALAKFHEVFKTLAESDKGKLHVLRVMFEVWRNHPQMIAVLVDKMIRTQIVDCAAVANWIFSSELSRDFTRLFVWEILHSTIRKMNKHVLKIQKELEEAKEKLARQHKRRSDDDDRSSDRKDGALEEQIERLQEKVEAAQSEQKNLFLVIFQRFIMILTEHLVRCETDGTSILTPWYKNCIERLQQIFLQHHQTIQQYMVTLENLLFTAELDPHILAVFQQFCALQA
# UniProt P98064: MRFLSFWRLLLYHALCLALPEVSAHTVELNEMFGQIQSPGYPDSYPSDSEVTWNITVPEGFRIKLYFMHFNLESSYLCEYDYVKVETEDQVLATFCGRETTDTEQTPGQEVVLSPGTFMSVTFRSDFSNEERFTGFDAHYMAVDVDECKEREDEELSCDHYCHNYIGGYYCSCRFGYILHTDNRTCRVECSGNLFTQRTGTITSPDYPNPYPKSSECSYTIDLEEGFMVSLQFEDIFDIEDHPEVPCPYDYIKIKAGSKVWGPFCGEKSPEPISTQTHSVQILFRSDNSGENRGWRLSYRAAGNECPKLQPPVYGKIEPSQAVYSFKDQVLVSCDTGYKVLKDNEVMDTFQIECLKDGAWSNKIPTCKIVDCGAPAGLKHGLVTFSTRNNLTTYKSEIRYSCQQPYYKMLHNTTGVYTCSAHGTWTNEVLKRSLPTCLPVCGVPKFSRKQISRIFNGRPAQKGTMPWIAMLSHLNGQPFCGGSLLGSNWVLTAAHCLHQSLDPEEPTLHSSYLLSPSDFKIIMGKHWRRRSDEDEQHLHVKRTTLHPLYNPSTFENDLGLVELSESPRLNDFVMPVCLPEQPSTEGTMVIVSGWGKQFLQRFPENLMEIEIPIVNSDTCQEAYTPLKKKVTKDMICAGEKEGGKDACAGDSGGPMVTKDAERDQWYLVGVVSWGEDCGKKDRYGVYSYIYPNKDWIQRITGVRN
# UniProt Q5NCR9: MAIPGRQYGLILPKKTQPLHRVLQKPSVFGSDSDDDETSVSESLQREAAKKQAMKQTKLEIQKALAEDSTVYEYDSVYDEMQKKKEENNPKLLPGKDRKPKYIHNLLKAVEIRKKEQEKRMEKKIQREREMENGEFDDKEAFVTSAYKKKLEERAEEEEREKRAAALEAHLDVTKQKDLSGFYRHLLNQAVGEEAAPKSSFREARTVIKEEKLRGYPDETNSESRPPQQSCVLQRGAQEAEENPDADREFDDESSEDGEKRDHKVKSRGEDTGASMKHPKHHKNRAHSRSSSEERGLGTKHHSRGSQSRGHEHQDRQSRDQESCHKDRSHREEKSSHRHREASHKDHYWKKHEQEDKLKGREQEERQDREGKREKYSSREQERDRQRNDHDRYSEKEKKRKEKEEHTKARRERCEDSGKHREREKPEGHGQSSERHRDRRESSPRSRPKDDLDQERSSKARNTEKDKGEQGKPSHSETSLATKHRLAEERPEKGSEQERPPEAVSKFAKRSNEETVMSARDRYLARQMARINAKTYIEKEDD
# UniProt Q07797: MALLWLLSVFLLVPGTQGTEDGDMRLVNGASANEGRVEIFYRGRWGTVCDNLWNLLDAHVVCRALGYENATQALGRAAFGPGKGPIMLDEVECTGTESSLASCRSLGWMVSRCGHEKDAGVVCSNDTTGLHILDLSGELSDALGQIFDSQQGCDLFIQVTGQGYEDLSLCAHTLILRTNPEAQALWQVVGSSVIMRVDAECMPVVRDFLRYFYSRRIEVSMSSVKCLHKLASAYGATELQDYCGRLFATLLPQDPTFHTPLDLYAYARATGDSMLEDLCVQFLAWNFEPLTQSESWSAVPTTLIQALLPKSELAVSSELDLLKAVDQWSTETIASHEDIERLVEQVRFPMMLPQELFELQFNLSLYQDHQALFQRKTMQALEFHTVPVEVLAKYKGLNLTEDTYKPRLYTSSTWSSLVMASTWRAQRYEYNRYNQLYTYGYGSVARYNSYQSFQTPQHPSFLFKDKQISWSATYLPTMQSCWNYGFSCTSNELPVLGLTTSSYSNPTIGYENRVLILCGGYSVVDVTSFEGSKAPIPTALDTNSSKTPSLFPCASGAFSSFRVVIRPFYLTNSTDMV
# UniProt Q02257: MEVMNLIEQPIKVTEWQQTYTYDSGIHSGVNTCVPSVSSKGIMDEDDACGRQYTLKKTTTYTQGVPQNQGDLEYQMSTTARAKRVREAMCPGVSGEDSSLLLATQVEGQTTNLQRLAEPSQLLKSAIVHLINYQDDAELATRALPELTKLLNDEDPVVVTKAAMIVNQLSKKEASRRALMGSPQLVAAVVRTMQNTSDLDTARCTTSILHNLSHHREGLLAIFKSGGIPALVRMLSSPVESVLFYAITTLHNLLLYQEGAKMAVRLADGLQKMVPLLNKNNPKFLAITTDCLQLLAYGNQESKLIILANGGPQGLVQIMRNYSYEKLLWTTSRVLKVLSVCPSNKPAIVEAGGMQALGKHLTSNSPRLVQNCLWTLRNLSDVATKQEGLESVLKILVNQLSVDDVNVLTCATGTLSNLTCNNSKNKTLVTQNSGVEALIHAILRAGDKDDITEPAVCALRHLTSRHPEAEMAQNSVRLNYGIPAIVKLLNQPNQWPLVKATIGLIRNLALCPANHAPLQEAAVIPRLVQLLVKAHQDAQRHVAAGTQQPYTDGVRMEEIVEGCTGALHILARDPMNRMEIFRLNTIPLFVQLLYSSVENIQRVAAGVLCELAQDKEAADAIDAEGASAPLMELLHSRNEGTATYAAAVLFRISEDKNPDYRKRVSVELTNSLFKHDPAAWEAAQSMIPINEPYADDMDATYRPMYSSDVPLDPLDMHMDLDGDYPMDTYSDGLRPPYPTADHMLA
# UniProt Q04447: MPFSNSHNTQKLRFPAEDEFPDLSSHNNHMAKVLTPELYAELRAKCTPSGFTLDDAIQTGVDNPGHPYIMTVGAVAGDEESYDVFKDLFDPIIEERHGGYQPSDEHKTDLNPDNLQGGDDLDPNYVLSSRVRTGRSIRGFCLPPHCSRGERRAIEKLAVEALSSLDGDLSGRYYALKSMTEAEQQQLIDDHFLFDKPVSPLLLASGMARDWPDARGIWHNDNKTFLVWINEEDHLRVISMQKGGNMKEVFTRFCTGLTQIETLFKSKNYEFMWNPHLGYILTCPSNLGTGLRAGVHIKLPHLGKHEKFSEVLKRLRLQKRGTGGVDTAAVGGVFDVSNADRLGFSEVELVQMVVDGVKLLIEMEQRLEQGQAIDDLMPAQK
# UniProt Q3UH06: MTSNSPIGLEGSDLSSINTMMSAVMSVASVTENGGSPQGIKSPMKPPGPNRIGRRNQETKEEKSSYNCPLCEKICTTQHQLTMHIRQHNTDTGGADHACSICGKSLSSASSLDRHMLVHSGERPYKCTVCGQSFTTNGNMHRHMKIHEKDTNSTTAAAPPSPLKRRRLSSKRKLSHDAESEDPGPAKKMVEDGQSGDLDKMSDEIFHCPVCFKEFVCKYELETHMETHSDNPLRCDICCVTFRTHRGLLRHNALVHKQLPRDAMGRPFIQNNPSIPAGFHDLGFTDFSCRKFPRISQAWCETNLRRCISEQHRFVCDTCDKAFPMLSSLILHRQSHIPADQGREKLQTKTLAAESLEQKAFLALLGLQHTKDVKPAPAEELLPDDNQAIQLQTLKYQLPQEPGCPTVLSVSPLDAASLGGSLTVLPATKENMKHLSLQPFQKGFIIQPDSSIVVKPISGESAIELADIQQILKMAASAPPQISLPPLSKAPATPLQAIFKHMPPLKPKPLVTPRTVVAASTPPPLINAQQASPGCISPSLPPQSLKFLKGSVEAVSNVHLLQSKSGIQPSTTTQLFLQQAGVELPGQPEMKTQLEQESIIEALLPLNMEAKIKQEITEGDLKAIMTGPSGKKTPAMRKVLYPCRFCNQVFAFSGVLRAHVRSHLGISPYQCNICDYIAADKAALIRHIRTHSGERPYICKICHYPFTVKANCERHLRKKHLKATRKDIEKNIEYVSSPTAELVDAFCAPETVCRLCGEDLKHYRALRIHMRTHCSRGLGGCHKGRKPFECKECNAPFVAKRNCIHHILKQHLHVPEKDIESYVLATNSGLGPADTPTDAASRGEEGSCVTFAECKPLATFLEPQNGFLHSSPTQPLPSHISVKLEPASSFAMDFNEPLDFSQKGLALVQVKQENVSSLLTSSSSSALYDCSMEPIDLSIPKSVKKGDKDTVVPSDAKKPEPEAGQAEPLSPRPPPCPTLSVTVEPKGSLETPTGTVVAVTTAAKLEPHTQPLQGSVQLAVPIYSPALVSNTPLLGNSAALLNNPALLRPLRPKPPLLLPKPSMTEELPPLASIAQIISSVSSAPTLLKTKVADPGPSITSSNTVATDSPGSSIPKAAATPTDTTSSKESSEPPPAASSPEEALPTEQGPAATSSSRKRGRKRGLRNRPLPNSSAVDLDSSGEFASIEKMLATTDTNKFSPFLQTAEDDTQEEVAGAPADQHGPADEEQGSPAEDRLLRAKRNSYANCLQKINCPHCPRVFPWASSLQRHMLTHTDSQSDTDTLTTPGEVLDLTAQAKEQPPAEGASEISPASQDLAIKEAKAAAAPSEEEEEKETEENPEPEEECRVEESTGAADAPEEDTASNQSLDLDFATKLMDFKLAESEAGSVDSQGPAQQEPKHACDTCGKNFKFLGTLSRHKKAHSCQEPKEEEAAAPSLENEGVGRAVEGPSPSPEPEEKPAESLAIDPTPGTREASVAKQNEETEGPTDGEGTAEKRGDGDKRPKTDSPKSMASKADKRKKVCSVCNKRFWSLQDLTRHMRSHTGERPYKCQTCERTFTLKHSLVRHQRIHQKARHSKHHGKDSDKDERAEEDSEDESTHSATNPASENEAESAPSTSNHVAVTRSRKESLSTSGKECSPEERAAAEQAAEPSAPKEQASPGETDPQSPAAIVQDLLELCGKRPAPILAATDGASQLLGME
# UniProt Q569Z6: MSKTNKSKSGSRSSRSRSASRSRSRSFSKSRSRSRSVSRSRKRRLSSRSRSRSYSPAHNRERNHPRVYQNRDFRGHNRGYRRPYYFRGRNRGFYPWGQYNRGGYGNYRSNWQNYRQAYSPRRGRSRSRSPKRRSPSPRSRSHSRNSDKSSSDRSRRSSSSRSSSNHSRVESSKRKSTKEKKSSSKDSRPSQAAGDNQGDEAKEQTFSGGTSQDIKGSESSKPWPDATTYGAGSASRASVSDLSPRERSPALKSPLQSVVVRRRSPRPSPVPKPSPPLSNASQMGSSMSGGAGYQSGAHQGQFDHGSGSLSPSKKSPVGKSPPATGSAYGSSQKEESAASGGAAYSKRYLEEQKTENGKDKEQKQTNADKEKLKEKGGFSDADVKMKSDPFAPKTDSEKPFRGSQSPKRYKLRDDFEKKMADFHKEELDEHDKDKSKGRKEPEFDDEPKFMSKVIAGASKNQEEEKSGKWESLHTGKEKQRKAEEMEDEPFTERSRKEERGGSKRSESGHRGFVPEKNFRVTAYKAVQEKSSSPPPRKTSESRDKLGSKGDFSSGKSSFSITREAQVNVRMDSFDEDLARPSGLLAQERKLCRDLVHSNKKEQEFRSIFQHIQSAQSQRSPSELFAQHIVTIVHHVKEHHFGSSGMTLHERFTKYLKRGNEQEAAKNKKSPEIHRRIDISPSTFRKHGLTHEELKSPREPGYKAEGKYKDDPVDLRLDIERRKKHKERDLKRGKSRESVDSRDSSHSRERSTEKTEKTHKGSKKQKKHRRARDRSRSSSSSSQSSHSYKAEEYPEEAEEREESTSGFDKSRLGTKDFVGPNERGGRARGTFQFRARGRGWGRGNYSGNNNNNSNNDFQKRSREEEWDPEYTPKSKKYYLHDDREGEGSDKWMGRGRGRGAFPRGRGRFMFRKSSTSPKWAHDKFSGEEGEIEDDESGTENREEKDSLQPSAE
# UniProt Q5M8N0: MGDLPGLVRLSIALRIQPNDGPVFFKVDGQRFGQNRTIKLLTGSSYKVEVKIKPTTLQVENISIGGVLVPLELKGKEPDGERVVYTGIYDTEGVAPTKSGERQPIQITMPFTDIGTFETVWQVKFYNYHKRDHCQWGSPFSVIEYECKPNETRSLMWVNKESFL
# The list shows a part of the results. Most entries show no effect beyond the scatter of the controls.
# Compound: CN[C@@H]1C[C@H]2O[C@@](C)([C@@H]1OC)n1c3ccccc3c3c4c(c5c6ccccc6n2c5c31)C(=O)NC4 [staurosporine]
# Experiment: log2 fold change of pooled soluble protein (PISA), ligand vs vehicle (log2 ratio); higher = more thermally stabilized
# Conditions: ligand concentration: 20 uM; assay format: PISA pool 52.9/55.5/58.6 C
row,Target,log2 fold change of pooled soluble protein
1,UniProt Q3UYV9,1.49
2,UniProt P98064,-0.0794
3,UniProt Q05186,0.0376
4,UniProt Q3UM45,-0.0469
5,UniProt Q5NCR9,-0.709
6,UniProt Q08093,0.0625
7,UniProt Q3TC33,-0.163
8,UniProt Q3UUI3,0.0176
9,UniProt Q3U0B3,-0.04
10,UniProt Q5IRJ6,0.165
11,UniProt Q3UHK8,0.451
12,UniProt Q0VG49,-0.22
13,UniProt Q3UIU2,-0.473
14,UniProt Q07797,-0.0404
15,UniProt Q5NBU8,-0.183
16,UniProt Q45VN2,0.172
17,UniProt Q3TCJ1,0.00159
18,UniProt Q3U487,-0.195
19,UniProt P97807,-0.0891
20,UniProt Q3UMU9,0.0238
21,UniProt Q3TWL2,-0.0441

# Some of the entries so far, tab-delimited:
row	Target	log2 fold change of pooled soluble protein
11	UniProt Q3UHK8	0.451
12	UniProt Q0VG49	-0.22

# (cont.)

row,Target,log2 fold change of pooled soluble protein
1,UniProt Q3UH60,-0.321
2,UniProt Q02257,-0.0293
3,UniProt Q04447,-0.416
4,UniProt Q3UPL0,0.106
5,UniProt Q3TGF2,0.0781
6,UniProt Q283N4,-0.164
7,UniProt Q3UH06,-0.131
8,UniProt Q00899,0.275
9,UniProt Q1HFZ0,0.067
10,UniProt Q07076,-0.0737
11,UniProt Q501J7,0.0771
12,UniProt Q569Z6,-0.0807
13,UniProt Q3UI43,0.0381
14,UniProt Q05793,-0.0826
15,UniProt Q3V0K9,0.457
16,UniProt Q03160,-0.0756
17,UniProt Q19LI2,-0.0136
18,UniProt Q3UL97,-0.18
19,UniProt Q5M8N0,0.00666
20,UniProt Q3B7Z2,-0.0467
